These results are taken from publication PMC9001639.

Results are given in words; binding and its absence hold for the method and conditions named. Binding seen in cells or lysates may run through a third protein. Where a sequence is shown, tags or fusion partners need not be part of it.

One test addresses T1, HA-NEDD9 (human) (UniProt Q14511).
T1 sequence: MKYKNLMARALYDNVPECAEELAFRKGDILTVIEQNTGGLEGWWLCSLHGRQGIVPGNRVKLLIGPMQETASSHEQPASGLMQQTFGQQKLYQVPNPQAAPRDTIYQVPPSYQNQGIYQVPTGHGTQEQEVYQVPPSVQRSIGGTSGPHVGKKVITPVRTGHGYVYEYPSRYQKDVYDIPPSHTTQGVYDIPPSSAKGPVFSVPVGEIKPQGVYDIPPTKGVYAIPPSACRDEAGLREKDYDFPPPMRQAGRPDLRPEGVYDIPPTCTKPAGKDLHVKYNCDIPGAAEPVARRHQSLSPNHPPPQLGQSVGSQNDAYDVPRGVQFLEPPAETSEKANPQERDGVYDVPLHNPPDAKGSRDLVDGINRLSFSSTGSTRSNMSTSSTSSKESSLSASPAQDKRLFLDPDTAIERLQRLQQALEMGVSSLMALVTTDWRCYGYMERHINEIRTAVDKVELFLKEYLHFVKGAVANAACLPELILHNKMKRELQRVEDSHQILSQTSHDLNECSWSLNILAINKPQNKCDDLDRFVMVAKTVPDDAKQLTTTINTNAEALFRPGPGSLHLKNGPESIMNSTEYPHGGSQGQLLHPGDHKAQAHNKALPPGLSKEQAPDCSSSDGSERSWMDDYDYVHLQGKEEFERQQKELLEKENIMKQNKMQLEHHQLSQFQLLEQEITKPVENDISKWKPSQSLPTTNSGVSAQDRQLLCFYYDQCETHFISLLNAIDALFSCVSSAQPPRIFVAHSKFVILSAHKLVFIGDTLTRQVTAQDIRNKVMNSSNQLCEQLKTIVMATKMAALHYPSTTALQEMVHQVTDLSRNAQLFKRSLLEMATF
The experiment in a line: co-IP; HEK293 cells co-overexpressing HA-NEDD9 and GFP-HK1 or GFP-HK2, collected after 24 h; lysed in PTY buffer; Protein A/G plus agarose beads with antibody to HA or to the hexokinases (or IgG control), 500 ug lysate, overnight at 4 °C; western blot; cells with or without dasatinib (SRC inhibitor).

For a further test, the target named is T2, GFP-fused HK2 (UniProt P52789).
T2 sequence: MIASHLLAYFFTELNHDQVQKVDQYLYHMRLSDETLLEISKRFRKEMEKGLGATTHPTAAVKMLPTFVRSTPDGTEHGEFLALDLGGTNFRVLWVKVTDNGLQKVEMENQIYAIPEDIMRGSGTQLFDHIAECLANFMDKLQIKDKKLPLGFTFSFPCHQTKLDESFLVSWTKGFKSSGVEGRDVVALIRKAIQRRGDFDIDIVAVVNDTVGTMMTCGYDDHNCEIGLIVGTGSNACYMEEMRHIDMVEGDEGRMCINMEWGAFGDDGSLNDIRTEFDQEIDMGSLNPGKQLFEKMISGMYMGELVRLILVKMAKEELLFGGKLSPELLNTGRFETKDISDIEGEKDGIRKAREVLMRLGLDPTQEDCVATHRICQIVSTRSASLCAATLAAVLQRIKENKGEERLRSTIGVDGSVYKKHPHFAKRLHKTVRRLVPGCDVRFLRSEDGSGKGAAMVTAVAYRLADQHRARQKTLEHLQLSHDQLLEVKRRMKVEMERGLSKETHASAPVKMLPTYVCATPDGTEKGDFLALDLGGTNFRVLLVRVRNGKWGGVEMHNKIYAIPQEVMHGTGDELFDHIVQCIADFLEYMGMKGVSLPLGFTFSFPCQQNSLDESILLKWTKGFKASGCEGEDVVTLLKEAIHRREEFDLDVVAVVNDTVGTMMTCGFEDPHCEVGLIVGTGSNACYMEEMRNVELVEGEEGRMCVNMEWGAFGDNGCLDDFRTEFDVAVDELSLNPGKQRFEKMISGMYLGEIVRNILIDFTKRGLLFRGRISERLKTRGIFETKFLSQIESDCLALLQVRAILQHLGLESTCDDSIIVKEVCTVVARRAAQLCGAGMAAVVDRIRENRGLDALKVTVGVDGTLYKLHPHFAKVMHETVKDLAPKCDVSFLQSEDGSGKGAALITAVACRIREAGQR
The description is as above.

B1: GFP-fused HK2 (enzyme, UniProt P52789 1-917)
chain: T2 sequence
For the molecule B1, in the test with HA-NEDD9 (human), the binding entry is reported as “no binding”.

B2: HA-NEDD9 (protein, UniProt Q14511 1-834)
chain: T1 sequence
With B2, in the test with GFP-fused HK2, the binding result is “no binding”.
